{
  "source": "patent US20230220021A1",
  "about": "(University of Copenhagen, priority 2020, published 2023)",
  "key": {"[1]": {"assay": "general procedure: Fmoc solid-phase peptide synthesis; Rink Amide-ChemMatrix resin (cyclic peptides); preloaded Fmoc-Gly or Fmoc-Val-Wang resin, 100-200 mesh (linear peptides); DIC / Oxyma Pure", "conditions": "whole synthesis"}, "[2]": {"test_system": "mouse (mus musculus) brain lysate", "assay": "Affinity-based pull down from brain lysate with LC-MS/MS", "conditions": "peptide on Dynabeads M-270 Amine; for proteins enriched in pull down: cytosolic fraction; for enrichment of PDZ-containing proteins in pull down: membranal fraction"}},
  "note": "For part of these data: One purity is given for all peptides; the source may state it once.",
  "data": [
    {"compound": "Cyclo-(THLETTFWGDGEPKTIRVTQPG(Qα))", "values": [
      {"measurement": "final purity (method not given)", "setting": "[1]", "result": ">95", "unit": "%"}
    ]},
    {"compound": "Cyclo-(THLETTFtGDGTPKTIRVTQpG(Qα))", "values": [
      {"measurement": "final purity (method not given)", "setting": "[1]", "result": ">95", "unit": "%"}
    ]},
    {"compound": "Cyclo-(THIETTFTGDGTPKTIRVQpG(Qα))", "values": [
      {"measurement": "final purity (method not given)", "setting": "[1]", "result": ">95", "unit": "%"}
    ]},
    {"compound": "Cyclo-(THLETTFWGdGEPKTIRVTQPG(Qα))", "values": [
      {"measurement": "final purity (method not given)", "setting": "[1]", "result": ">95", "unit": "%"}
    ]},
    {"compound": "Cyclo-(THLETTfTGDGTPKTIRVTQpG(Qα))", "values": [
      {"measurement": "final purity (method not given)", "setting": "[1]", "result": ">95", "unit": "%"}
    ]},
    {"compound": "Cyclo-(THLETTFTGdGTPKTIRVTQpG(Qα))", "values": [
      {"measurement": "final purity (method not given)", "setting": "[1]", "result": ">95", "unit": "%"}
    ]},
    {"compound": "Cyclo-(THLETTFWGDPEPKTIRVTQpG(Qα))", "values": [
      {"measurement": "final purity (method not given)", "setting": "[1]", "result": ">95", "unit": "%"}
    ]},
    {"compound": "Cyclo-(THLETtFTGDGTPKTIRVTQpG(Qα))", "values": [
      {"measurement": "final purity (method not given)", "setting": "[1]", "result": ">95", "unit": "%"}
    ]},
    {"compound": "Cyclo-(THLETTFTGDGTPKTIRVtQpG(Qα))", "values": [
      {"measurement": "final purity (method not given)", "setting": "[1]", "result": ">95", "unit": "%"}
    ]},
    {"compound": "Cyclo-(THLETTFTGDGTPKTiRVTQpG(Qα))", "values": [
      {"measurement": "final purity (method not given)", "setting": "[1]", "result": ">95", "unit": "%"}
    ]},
    {"compound": "Cyclo-(THLETTFTGDGTPKTIrVTQpG(Qα))", "values": [
      {"measurement": "final purity (method not given)", "setting": "[1]", "result": ">95", "unit": "%"}
    ]},
    {"compound": "Cyclo-(ThLETTFTGDGTPKTIRVTQpG(Qα))", "values": [
      {"measurement": "final purity (method not given)", "setting": "[1]", "result": ">95", "unit": "%"}
    ]},
    {"compound": "Cyclo-(THLETTFTGDGtPKTIRVTQpG(Qα))", "values": [
      {"measurement": "final purity (method not given)", "setting": "[1]", "result": ">95", "unit": "%"}
    ]},
    {"compound": "Cyclo-(THLETTFTGDGTPkTIRVTQpG(Qα))", "values": [
      {"measurement": "final purity (method not given)", "setting": "[1]", "result": ">95", "unit": "%"}
    ]},
    {"compound": "Cyclo-(THLETTFTGDGTpKTIRVTQpG(Qα))", "values": [
      {"measurement": "final purity (method not given)", "setting": "[1]", "result": ">95", "unit": "%"}
    ]},
    {"compound": "Cyclo-(TH(1-Me)LETTFTGDGTPKTIRVTQpG(Qα))", "values": [
      {"measurement": "final purity (method not given)", "setting": "[1]", "result": ">95", "unit": "%"}
    ]},
    {"compound": "Cyclo-(THLETTFWGDAEPKTIRVTQpG(Qα))", "values": [
      {"measurement": "final purity (method not given)", "setting": "[1]", "result": ">95", "unit": "%"}
    ]},
    {"compound": "Cyclo-(THLETTFWGDGDPKTIRVTQpG(QG))", "values": [
      {"measurement": "final purity (method not given)", "setting": "[1]", "result": ">95", "unit": "%"}
    ]},
    {"compound": "Cyclo-(THLETTFTGDGTPKTIRVTqpG(Qα))", "values": [
      {"measurement": "final purity (method not given)", "setting": "[1]", "result": ">95", "unit": "%"}
    ]},
    {"compound": "Cyclo-(THLEtTFTGDGTPKTIRVTQpG(Qα))", "values": [
      {"measurement": "final purity (method not given)", "setting": "[1]", "result": ">95", "unit": "%"}
    ]},
    {"compound": "Cyclo-(TH(3-Me)LETTFTGDGTPKTIRVTQpG(Qα))", "values": [
      {"measurement": "final purity (method not given)", "setting": "[1]", "result": ">95", "unit": "%"}
    ]},
    {"compound": "Cyclo-(THLETTFTGDGTPKtIRVTQpG(Qα))", "values": [
      {"measurement": "final purity (method not given)", "setting": "[1]", "result": ">95", "unit": "%"}
    ]},
    {"compound": "Cyclo-(THLETTFWGDPTPKTIRVTQpG(QG))", "values": [
      {"measurement": "final purity (method not given)", "setting": "[1]", "result": ">95", "unit": "%"}
    ]},
    {"compound": "Cyclo-(THLETTFTGDPEPKTIRVTQpG(Qα))", "values": [
      {"measurement": "final purity (method not given)", "setting": "[1]", "result": ">95", "unit": "%"}
    ]},
    {"compound": "Cyclo-(tHLETTFTGDGTPKTIRVTQpG(Qα))", "values": [
      {"measurement": "final purity (method not given)", "setting": "[1]", "result": ">95", "unit": "%"}
    ]},
    {"compound": "Cyclo-(THLeTTFTGDGTPKTIRVTQpG(Qα))", "values": [
      {"measurement": "final purity (method not given)", "setting": "[1]", "result": ">95", "unit": "%"}
    ]},
    {"compound": "Cyclo-(THLETTFTGDGTPKTIRvTQpG(Qα))", "values": [
      {"measurement": "final purity (method not given)", "setting": "[1]", "result": ">95", "unit": "%"}
    ]},
    {"compound": "CC[C@H](C)[C@@H]1NC(=O)[C@H]([C@@H](C)O)NC(=O)[C@H](CCCCN)NC(=O)[C@@H]2CCCN2C(=O)[C@H]([C@@H](C)O)NC(=O)CNC(=O)[C@H](CC(=O)O)NC(=O)CNC(=O)[C@H]([C@@H](C)O)NC(=O)[C@H](Cc2ccccc2)NC(=O)[C@H]([C@@H](C)O)NC(=O)[C@H]([C@@H](C)O)NC(=O)[C@H](CCC(=O)O)NC(=O)[C@H](CC(C)C)NC(=O)[C@H](Cc2c[nH]cn2)NC(=O)[C@H]([C@@H](C)O)NC(=O)[C@H](CCC(N)=O)NC(=O)CNC(=O)[C@H]2CCCN2C(=O)[C@H](CCC(N)=O)NC(=O)[C@H]([C@@H](C)O)NC(=O)[C@H](C(C)C)NC(=O)[C@H](CCCNC(=N)N)NC1=O", "note": "[SEQ ID NO: 12]", "values": [
      {"measurement": "proteins enriched in pull down", "setting": "[2]", "result": "significantly enriched PSD-95"},
      {"measurement": "enrichment of PDZ-containing proteins in pull down", "setting": "[2]", "result": "not significantly enriched"}
    ]},
    {"compound": "KLSSIESDV [SEQ ID NO: 435, reference compound]", "values": [
      {"measurement": "proteins enriched in pull down", "setting": "[2]", "result": "enriches significantly the multi-PDZ domain proteins membrane-associated guanylate kinase inverted MAGUK (Magi1 and Magi2)"},
      {"measurement": "enrichment of PDZ-containing proteins in pull down", "setting": "[2]", "result": "not significantly enriched"}
    ]},
    {"compound": "Cyclo-(THLETTFGDGEPKTIRVTQpG(Qα))", "values": [
      {"measurement": "final purity (method not given)", "setting": "[1]", "result": ">95", "unit": "%"}
    ]},
    {"compound": "Cyclo-(THLETTFGdGEPKTIRVTQpG(Qα))", "values": [
      {"measurement": "final purity (method not given)", "setting": "[1]", "result": ">95", "unit": "%"}
    ]}
  ]
}
